# The supplement of paper PMC4604168 (melanoma cell lines)
# The list shows a part of the results. Single values are uncertain, as repeats are few or missing.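 Imaging used 1,536-well plates; nuclei positive for cleaved PARP by antibody were divided by total DNA-stained nuclei to yield the apoptosis fraction. Doses for screening kept most cells viable, and cell lines differ markedly in resting and induced cleaved-PARP levels.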
# How the values were obtained:
# Assay in all cases: cleaved PARP positive nuclei fraction relative to DMSO control; melanoma cells; higher = more apoptosis
# Details in all cases: library dose: low library concentration; 72 h
# MZ2-MEL = tested on: MZ2-MEL
# MeWo = tested on: MeWo
# RPMI7951 = tested on: RPMI7951
# RVH-421 = tested on: RVH-421
# SkMel28 = tested on: SkMel28
# SkMel2 = tested on: SkMel2
# SkMel30 = tested on: SkMel30
# UACC62 = tested on: UACC62
# WM115 = tested on: WM115
# WM1716 = tested on: WM1716
# WM1745 = tested on: WM1745
# WM3526 = tested on: WM3526
# WM3619 = tested on: WM3619
# WM451Lu = tested on: WM451Lu
SMILES,cleaved PARP positive nuclei fraction (MZ2-MEL),cleaved PARP positive nuclei fraction (MeWo),cleaved PARP positive nuclei fraction (RPMI7951),cleaved PARP positive nuclei fraction (RVH-421),cleaved PARP positive nuclei fraction (SkMel28),cleaved PARP positive nuclei fraction (SkMel2),cleaved PARP positive nuclei fraction (SkMel30),cleaved PARP positive nuclei fraction (UACC62),cleaved PARP positive nuclei fraction (WM115),cleaved PARP positive nuclei fraction (WM1716),cleaved PARP positive nuclei fraction (WM1745),cleaved PARP positive nuclei fraction (WM3526),cleaved PARP positive nuclei fraction (WM3619),cleaved PARP positive nuclei fraction (WM451Lu)
"O=C(Nc1cc(C(F)(F)F)cc(C(F)(F)F)c1)c1cc(Cl)ccc1O + Cc1nc(Nc2ncc(C(=O)Nc3c(C)cccc3Cl)s2)cc(N2CCN(CCO)CC2)n1 [dasatanib] (first compound 0.016 µM, partner dose 0.004 µM)",96.5%,130%,98.6%,226%,121%,62.5%,68%,237%,85.7%,106%,145%,33%,99.1%,20.8%
"COc1cc([C@@H]2c3cc4c(cc3[C@@H](O[C@@H]3O[C@@H]5CO[C@@H](C)O[C@H]5[C@H](O)[C@H]3O)[C@H]3COC(=O)[C@H]23)OCO4)cc(OC)c1O [etoposide] + O=C(O)c1ccc2c(c1)nc(Nc1cccc(Cl)c1)c1ccncc12 [CX4945] (first compound 0.02 µM, partner dose 0.4 µM)",77.9%,36%,45.7%,70.1%,83.3%,75.2%,165%,70.2%,33.3%,141%,94.1%,58.8%,110%,129%
"Cc1cn(-c2cc(NC(=O)c3ccc(C)c(Nc4nccc(-c5cccnc5)n4)c3)cc(C(F)(F)F)c2)cn1 [nilotinib] + C[C@@H](Oc1cc(-c2cnn(C3CCNCC3)c2)cnc1N)c1c(Cl)ccc(F)c1Cl [Crizotinib] (first compound 0.2 µM, partner dose 0.2 µM)",38.6%,78.9%,80.2%,23.3%,74.9%,5870%,81.3%,66.2%,106%,63.9%,1020%,25.3%,106%,104%
"Cc1ccc(Nc2nccc(N(C)c3ccc4c(C)n(C)nc4c3)n2)cc1S(N)(=O)=O [Pazopanib] + Nc1cccc2c1CN(C1CCC(=O)NC1=O)C2=O [lenalidomide] (first compound 0.4 µM, partner dose 1 µM)",126%,68.7%,51%,115%,24.8%,125%,142%,92.6%,86.1%,84.4%,221%,22.9%,81.5%,42.3%
"Cc1ccc(Nc2nccc(N(C)c3ccc4c(C)n(C)nc4c3)n2)cc1S(N)(=O)=O [Pazopanib] + C#Cc1cccc(Nc2ncnc3cc(OCCOC)c(OCCOC)cc23)c1 [erlotinib] (first compound 0.4 µM, partner dose 0.8 µM)",59.8%,73.8%,59.3%,100%,78.6%,108%,185%,138%,171%,86%,104%,85.1%,83.8%,92.8%
"O=C(Nc1cc(C(F)(F)F)cc(C(F)(F)F)c1)c1cc(Cl)ccc1O + Cn1nnc2c(C(N)=O)ncn2c1=O [temozolomide] (first compound 0.016 µM, partner dose 2 µM)",88.2%,98.1%,57.3%,57.6%,87.5%,43.9%,117%,133%,178%,90.9%,108%,85.1%,91.6%,96.9%
"CCCCCCCCCCCCCCCCCCOP(=O)([O-])OC1CC[N+](C)(C)CC1 [Perifosine] + COCC[n+]1c2c(n(Cc3cnccn3)c1C)C(=O)c1ccccc1C2=O [YM155] (first compound 0.4 µM, partner dose 0.0004 µM)",135%,106%,164%,54.3%,76.7%,155%,22.7%,35.1%,122%,58.8%,82.7%,40.1%,104%,76.7%
"Cc1cn(-c2cc(NC(=O)c3ccc(C)c(Nc4nccc(-c5cccnc5)n4)c3)cc(C(F)(F)F)c2)cn1 [nilotinib] + CS(=O)(=O)c1ccc(C(=O)Nc2ccc(Cl)c(-c3ccccn3)c2)c(Cl)c1 [vismodegib] (first compound 0.2 µM, partner dose 1 µM)",92.5%,38.2%,53.5%,214%,82.8%,73.6%,159%,58.6%,89.3%,69.2%,83.6%,100%,79.4%,82.8%
"CC[C@]1(O)C[C@H]2CN(CCc3c([nH]c4ccccc34)[C@@](C(=O)OC)(c3cc4c(cc3OC)N(C=O)[C@H]3[C@@](O)(C(=O)OC)[C@H](OC(C)=O)[C@]5(CC)C=CCN6CC[C@]43[C@@H]65)C2)C1 [vincristine] + C[C@]1(O)C[C@@H](c2nc(-c3ccc4ccc(-c5ccccc5)nc4c3)c3c(N)nccn32)C1 [OSI906] (first compound 0.0001 µM, partner dose 0.4 µM)",125%,138%,302%,87.8%,74.5%,52.3%,162%,31.6%,241%,418%,123%,43.4%,92.1%,98.4%
"COc1cc([C@@H]2c3cc4c(cc3[C@@H](O[C@@H]3O[C@@H]5CO[C@@H](C)O[C@H]5[C@H](O)[C@H]3O)[C@H]3COC(=O)[C@H]23)OCO4)cc(OC)c1O [etoposide] + NC(=O)c1ccc(N(C(N)=O)c2c(F)cccc2F)nc1-c1ccc(F)cc1F [VX702] (first compound 0.02 µM, partner dose 0.4 µM)",33.5%,167%,98.3%,65.5%,77%,135%,63.3%,127%,103%,73.8%,79.9%,106%,90.4%,132%
"Cc1cc(Nc2cc(N3CCN(C)CC3)nc(Sc3ccc(NC(=O)C4CC4)cc3)n2)n[nH]1 [Tozasertib] + Nc1ccn([C@@H]2O[C@H](CO)[C@@H](O)C2(F)F)c(=O)n1 [gemcitabine] (first compound 0.006 µM, partner dose 0.0004 µM)",153%,80.2%,246%,100%,57.2%,126%,146%,124%,105%,68.5%,162%,41.5%,114%,77.4%
"N#CC[C@H](C1CCCC1)n1cc(-c2ncnc3[nH]ccc23)cn1 [ruxolitinib] + Cc1cn(-c2cc(NC(=O)c3ccc(C)c(Nc4nccc(-c5cccnc5)n4)c3)cc(C(F)(F)F)c2)cn1 [nilotinib] (first compound 1 µM, partner dose 0.2 µM)",91%,185%,109%,48.2%,31.4%,222%,94.3%,250%,83.2%,36.1%,109%,98.6%,90.3%,66.8%
"COc1cc([C@@H]2c3cc4c(cc3[C@@H](O[C@@H]3O[C@@H]5CO[C@@H](C)O[C@H]5[C@H](O)[C@H]3O)[C@H]3COC(=O)[C@H]23)OCO4)cc(OC)c1O [etoposide] + CC(=O)c1c(C)c2cnc(Nc3ccc(N4CCNCC4)cn3)nc2n(C2CCCC2)c1=O [palbociclib] (first compound 0.02 µM, partner dose 0.04 µM)",52.2%,33.4%,213%,113%,97.7%,73.7%,43.8%,238%,28.7%,108%,157%,117%,153%,128%
"O=c1[nH]nc(Sc2ncc([N+](=O)[O-])s2)n1-c1ccc2c(c1)OCCO2 + C[C@@H](Oc1cc(-c2cnn(C3CCNCC3)c2)cnc1N)c1c(Cl)ccc(F)c1Cl [Crizotinib] (first compound 0.2 µM, partner dose 0.2 µM)",78.9%,118%,34.3%,155%,35.9%,41%,83.1%,87.1%,78.8%,77.5%,90.4%,183%,90.7%,98.2%
"O=c1[nH]nc(Sc2ncc([N+](=O)[O-])s2)n1-c1ccc2c(c1)OCCO2 + Cc1cn(-c2cc(NC(=O)c3ccc(C)c(Nc4nccc(-c5cccnc5)n4)c3)cc(C(F)(F)F)c2)cn1 [nilotinib] (first compound 0.2 µM, partner dose 0.2 µM)",42.2%,113%,129%,45.1%,73.8%,127%,83.1%,95.6%,95.7%,147%,110%,178%,108%,80.4%
"Cc1cn(-c2cc(NC(=O)c3ccc(C)c(Nc4nccc(-c5cccnc5)n4)c3)cc(C(F)(F)F)c2)cn1 [nilotinib] + Clc1ccc(Nc2nnc(Cc3ccncc3)c3ccccc23)cc1 [vatalanib] (first compound 0.2 µM, partner dose 2 µM)",84.5%,169%,71.5%,235%,31.4%,39.8%,101%,203%,88.2%,118%,1090%,124%,99%,28.2%
"Cc1cn(-c2cc(NC(=O)c3ccc(C)c(Nc4nccc(-c5cccnc5)n4)c3)cc(C(F)(F)F)c2)cn1 [nilotinib] + Nc1ccn([C@@H]2O[C@H](CO)[C@@H](O)C2(F)F)c(=O)n1 [gemcitabine] (first compound 0.2 µM, partner dose 0.0004 µM)",155%,97.2%,95.7%,89.9%,203%,167%,208%,170%,97.4%,95.2%,108%,90.6%,93.7%,86.6%
"Cc1ccc(Nc2nccc(N(C)c3ccc4c(C)n(C)nc4c3)n2)cc1S(N)(=O)=O [Pazopanib] + Cn1sc(=O)n(Cc2ccccc2)c1=O [TDZD-8] (first compound 0.4 µM, partner dose 0.4 µM)",44.9%,96.1%,132%,135%,57.5%,95.4%,106%,43.1%,98.5%,150%,105%,82.3%,83.4%,32.3%
"CC[C@]1(O)C[C@H]2CN(CCc3c([nH]c4ccccc34)[C@@](C(=O)OC)(c3cc4c(cc3OC)N(C=O)[C@H]3[C@@](O)(C(=O)OC)[C@H](OC(C)=O)[C@]5(CC)C=CCN6CC[C@]43[C@@H]65)C2)C1 [vincristine] + O=C(Nc1cc(C(F)(F)F)cc(C(F)(F)F)c1)c1cc(Cl)ccc1O [IMD0354] (first compound 0.0001 µM, partner dose 0.016 µM)",189%,173%,188%,104%,93%,67.2%,203%,127%,746%,268%,110%,151%,200%,180%

# A stretch from further up, for reference:
SMILES,cleaved PARP positive nuclei fraction (MZ2-MEL),cleaved PARP positive nuclei fraction (MeWo),cleaved PARP positive nuclei fraction (RPMI7951),cleaved PARP positive nuclei fraction (RVH-421),cleaved PARP positive nuclei fraction (SkMel28),cleaved PARP positive nuclei fraction (SkMel2),cleaved PARP positive nuclei fraction (SkMel30),cleaved PARP positive nuclei fraction (UACC62),cleaved PARP positive nuclei fraction (WM115),cleaved PARP positive nuclei fraction (WM1716),cleaved PARP positive nuclei fraction (WM1745),cleaved PARP positive nuclei fraction (WM3526),cleaved PARP positive nuclei fraction (WM3619),cleaved PARP positive nuclei fraction (WM451Lu)
"COc1cc([C@@H]2c3cc4c(cc3[C@@H](O[C@@H]3O[C@@H]5CO[C@@H](C)O[C@H]5[C@H](O)[C@H]3O)[C@H]3COC(=O)[C@H]23)OCO4)cc(OC)c1O [etoposide] + O=C(O)c1ccc2c(c1)nc(Nc1cccc(Cl)c1)c1ccncc12 [CX4945] (first compound 0.02 µM, partner dose 0.4 µM)",77.9%,36%,45.7%,70.1%,83.3%,75.2%,165%,70.2%,33.3%,141%,94.1%,58.8%,110%,129%
"Cc1cn(-c2cc(NC(=O)c3ccc(C)c(Nc4nccc(-c5cccnc5)n4)c3)cc(C(F)(F)F)c2)cn1 [nilotinib] + C[C@@H](Oc1cc(-c2cnn(C3CCNCC3)c2)cnc1N)c1c(Cl)ccc(F)c1Cl [Crizotinib] (first compound 0.2 µM, partner dose 0.2 µM)",38.6%,78.9%,80.2%,23.3%,74.9%,5870%,81.3%,66.2%,106%,63.9%,1020%,25.3%,106%,104%
